In the assay the test system is Salmonella enterica serovar Typhimurium SL1344. As to the kind of experiment: bacterial growth OD600 after 18 h with compound and polymyxin B; higher = more bacterial growth (less inhibition). The following applies: 50 µM, Mueller-Hinton broth.

This is one part of the list. Values are raw readings; no control value is given beside them.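 In the initial screen, polymyxin B was used at a concentration that permeabilizes Salmonella's outer membrane but not its inner membrane. Maximum growth was set by DMSO wells with or without polymyxin B. Since plates varied, data were ranked per plate, and compounds giving the lowest OD600 advanced as hits.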

For `O=C(CC1(c2ccccc2Cl)CC(=O)N(C2CCCC2)C1=O)N1CCCCCC1` (stereo unspecified), the “bacterial growth OD600” value (polymyxin B 0.75 µg/mL) is -0.001.

In the case of `O=C(CC1=CCCCC1)N1CCCC(Nc2ccc(F)cc2)C1` (stereo unspecified), the “bacterial growth OD600” value (polymyxin B 1 µg/mL) stood at 0.881.

On to `CC(C)(C)NC(=O)NCc1cccnc1Oc1ccc(F)cc1F`, for which the “bacterial growth OD600” value (polymyxin B 1 µg/mL) was determined as 0.685.

`O=C(COc1ccccc1)N[C@@H]1c2ccccc2C2(CCN(Cc3c(F)ccc(F)c3F)CC2)[C@H]1O`: for the setting “polymyxin B 0.75 µg/mL”, the “bacterial growth OD600” value turned out to be 0.79.

On to `Cc1ccc(OCCN(C)C(=O)C2CC23CCN(C2CCSC2)CC3)cc1` (stereo unspecified), for which, for the setting “polymyxin B 0.75 µg/mL”, the “bacterial growth OD600” value amounted to 0.86.

Take `CN(C)CCN1C(=O)NC(Cc2cccc(F)c2)(C2CCN(C(=O)C3=CCCCC3)CC2)C1=O` (stereo unspecified): where the note is “polymyxin B 0.75 µg/mL”, the “bacterial growth OD600” value was determined as 0.771.

`CC(=O)NCCC(=O)N1CCCC(N2CCN(c3cccc(C(F)(F)F)c3)CC2)C1` (stereo unspecified): the “bacterial growth OD600” value (polymyxin B 1 µg/mL) is 0.95.

In the case of `O=C(NCCN1Cc2ccccc2OC(c2ccsc2)C1)c1ccc(Cn2cnnn2)cc1` (stereo unspecified), the “bacterial growth OD600” value (polymyxin B 0.75 µg/mL) amounted to 0.809.

For the compound `COc1ccc(C(CC(=O)N2CCN(C)CC2)c2ccccc2)cc1` (stereo unspecified), the “bacterial growth OD600” value (polymyxin B 1 µg/mL) is 0.862.

`CCC1CN(C(=O)c2ccc(F)cc2)Cc2ccc(Cl)cc2O1` (stereo unspecified): the “bacterial growth OD600” value (polymyxin B 0.75 µg/mL) was found to be 0.393.

Take `O=C(c1ccc(Cl)cc1OC1CCN(Cc2cccc(O)c2)CC1)N1CCCCC1`: the “bacterial growth OD600” value (polymyxin B 1 µg/mL) turned out to be 0.818.

In the case of `COc1ccccc1OCc1cc(C(=O)N2CCN(C)C[C@@H]2c2ccccc2)n[nH]1`, the “bacterial growth OD600” value (polymyxin B 1 µg/mL) is 0.901.

Turning to `CC(C)S(=O)(=O)NCc1cccnc1Oc1ccc(F)c(F)c1`, the “bacterial growth OD600” value (polymyxin B 0.75 µg/mL) turned out to be 0.775.

On to `O=C(NCCCn1ncc2ccccc21)C1CCC(=O)N(CCN2CCOCC2)C1` (stereo unspecified), for which, under “polymyxin B 1 µg/mL”, the “bacterial growth OD600” value came out at 0.821.

`O=C1O[C@@H]2CN(c3cnccn3)C[C@@H]2N1CCc1ccc(F)cc1`: the “bacterial growth OD600” value (polymyxin B 0.75 µg/mL) came out at 1.

For the compound `CSc1ccccc1C(=O)NCc1c(C)ncc2c1CCN(C(=O)C1COc3ccccc3O1)C2` (stereo unspecified), the “bacterial growth OD600” value (polymyxin B 0.75 µg/mL) amounted to 0.804.

With `COc1ccccc1OC1CCN(C(=O)C2CCN(c3nc(C)c4cc(F)ccc4n3)CC2)CC1`, the “bacterial growth OD600” value (polymyxin B 0.75 µg/mL) stood at 0.749.

Regarding `O=S(=O)(NCc1cccnc1Oc1ccccc1)c1ccccc1F`, the “bacterial growth OD600” value (polymyxin B 1 µg/mL) came out at 0.914.

`CCn1cc(CN2CCC(n3nccc3NC(=O)c3ccc4c(c3)OCO4)CC2)c(C)n1`: for the setting “polymyxin B 1 µg/mL”, the “bacterial growth OD600” value worked out at 0.863.

On to `CC1CN(Cc2cnn(-c3ccccc3)c2)Cc2ccccc2O1` (stereo unspecified), for which the “bacterial growth OD600” value (polymyxin B 0.75 µg/mL) was 0.773.

For the compound `COc1cccc(-c2ccccc2NC(=O)C2CCN(CC=C(C)C)CC2)c1`, the “bacterial growth OD600” value (polymyxin B 1 µg/mL) amounted to 1.01.

On to `Cc1noc(C)c1CCCNC(=O)c1ccc(N2CCCC(CO)C2)nc1` (stereo unspecified), for which, where the note is “polymyxin B 0.75 µg/mL”, the “bacterial growth OD600” value is 0.796.

Turning to `O=C1NCCN(CCCc2ccccc2)C1CC(=O)N1CCCN(c2ncccn2)CC1` (stereo unspecified), the “bacterial growth OD600” value (polymyxin B 0.75 µg/mL) was found to be 0.865.

As to `COC(=O)[C@]1(C)C[C@H](C(=O)NCC(C)(C)CO)[C@H](c2ccc(Cl)cc2)N1C`, the “bacterial growth OD600” value (polymyxin B 0.75 µg/mL) came to 0.82.

In the case of `Cc1nn(C)cc1CN1CCN(Cc2ccccc2F)C(CCO)C1` (stereo unspecified), the “bacterial growth OD600” value (polymyxin B 1 µg/mL) turned out to be 0.907.

On to `COCC(=O)Nc1cc(C(=O)N(C)CCc2cnn(C)c2)c2c(c1)ncn2Cc1ccc(F)cc1`, for which the “bacterial growth OD600” value (polymyxin B 0.75 µg/mL) came to 0.82.

In the case of `COc1ccc(CC2(CCC(=O)N3CC4(C)CC3CC(C)(C)C4)CCC(=O)N2)c2ccccc12` (stereo unspecified), the “bacterial growth OD600” value (polymyxin B 0.75 µg/mL) was determined as 0.005.

Take `CC(C)c1noc(-c2ccc(NCc3cn4ccsc4n3)nc2)n1`: the “bacterial growth OD600” value (polymyxin B 0.75 µg/mL) is 0.867.

For `CCCN1CCC(C(=O)Nc2ccc(Oc3ccccc3F)cc2)CC1`, the “bacterial growth OD600” value (polymyxin B 1 µg/mL) is 1.06.

On to `COCC(=O)Nc1cc(C(=O)N2CCC(c3ccccc3)CC2)cc2ncn(CCc3ccccc3)c12`, for which the “bacterial growth OD600” value (polymyxin B 0.75 µg/mL) was 1.04.

Consider `CC1(C)Cc2c(cnn2-c2cccc(F)c2)C(NC(=O)CN2CCCCC2)C1` (stereo unspecified), for which, under “polymyxin B 0.75 µg/mL”, the “bacterial growth OD600” value came out at 0.94.

For the origin of these results see the supplement of paper PMC12889115.
